Results published in PubChem BioAssay AID445 (National Center for Advancing Translational Sciences (NCATS), 2006).
Some of the results follow. The main result of the screen is listed elsewhere. These columns were measured beside it and carry no call. The list favours compounds with an active or inconclusive main result. The note in brackets gives the kind of curve behind each potency; many fits are weak.

Assay: IkB Signaling
Conditions: ABC-DLBCL IkBa-CBG/CBR dual luciferase ratio (green luciferase fused to IkBa over red control in OCI-Ly3 lymphoma cells), 4 h
Summary of the method: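 Luminescence ratio of IκBα-fused green versus native red beetle luciferase in OCI-Ly3 cells, 4 h post-doxycycline with compound; red signal alone, scaled from basal (0%) to zero light (-100%), flagged nonspecific or cytotoxic effects.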

[1] = measured here: control luc red channel unless noted
[2] = measured here: IkB-luc green channel
[3] = measured here: control luc red channel

## O=C1c2ccccc2C(=O)C12Cc1ccccc1N1CCN(c3ccccc3)CC12 (stereo not drawn)
[1]
  AC50: 15.8 µM [falling, partial curve]

## Cc1ccc(NC(=O)c2nc(-c3ccncc3)no2)c(Cl)c1
[1]
  AC50: 1.58 µM [rising, full curve, poor fit]

## CCOc1ccc(NC(=O)c2oc3ccccc3c2NC(=O)Cc2cccc(C)c2)cc1
[1]
  AC50: 10 µM [falling, partial curve]

## O=C(CCCOc1ccccc1)Nc1cccc(C(=O)O)c1
[1]
  AC50: 5.01 µM [falling, partial curve]

## COc1ccc(OC)c(NS(=O)(=O)c2ccc(Br)s2)c1
[1]
  AC50: 39.8 µM [falling, single point]

## CC(C)c1ccc(NC(=O)CCNS(=O)(=O)c2cccc3nsnc23)cc1
[1]
  AC50: 0.126 µM [falling, full curve, poor fit]

## COc1ccc(C(=O)Oc2ccc(C(c3c(C)[nH][nH]c3=O)c3c(C)[nH][nH]c3=O)cc2OC)cc1
[1]
  AC50: 15.8 µM [falling, partial curve]

## CCCN1C(C(=O)c2ccccc2)=C(OC(=O)c2ccc(C)cc2)c2ccccc2S1(=O)=O
[1]
  AC50: 10 µM [falling, partial curve]

## COc1ccc(NC(=O)c2c(C)oc3ccc(O)c(CN4CCOCC4)c23)cc1
[1]
  AC50: 25.1 µM [falling, single point]

## Cc1cccc(NC(=O)CSc2nc(=O)n(Cc3cccnc3)c3c2CCC3)c1
[1]
  AC50: 20 µM [falling, partial curve]

## O=C(Cn1c(=O)nc(-c2ccccc2)c2cc(Cl)ccc21)NCCc1ccccc1
[1]
  AC50: 7.94 µM [falling, partial curve]

## Cc1ccc(O)c(-c2n[nH]c3c2C(c2ccccc2F)N(Cc2ccco2)C3=O)c1 (stereo not drawn)
[1]
  AC50: 31.6 µM [falling, single point]

## Cc1sc2ncn(CC(=O)N3CCN(c4ccc(F)cc4)CC3)c(=O)c2c1S(=O)(=O)N1CCN(c2ncccn2)CC1
[1]
  AC50: 15.8 µM [falling, single point]

## COc1cccc(CNC(=O)CCS(=O)(=O)c2ccc3c(c2)CC(C)N3C(=O)C2CC2)c1 (stereo not drawn)
[1]
  AC50: 12.6 µM [rising, partial curve]

## CCOc1ccc(NC(=O)CN2CCN(c3ccc(Cl)cc3)CC2)cc1
[1]
  AC50: 12.6 µM [falling, partial curve]

## Cc1ccccc1-n1ncc2c(SCC(=O)NCc3cccs3)ncnc21
[1]
  AC50: 39.8 µM [falling, single point]

## O=C(c1cc(F)cc(F)c1)N1CCC(c2nc(-c3ccc(S(=O)(=O)N4CCCC4)cc3)no2)CC1
[1]
  AC50: 12.6 µM [falling, partial curve]

## O=C(NCc1ccco1)C(c1ccco1)N(C(=O)Cn1nnc2ccccc21)c1ccc2c(c1)CCC2 (stereo not drawn)
[1]
  AC50: 15.8 µM [falling, partial curve]

## COc1ccc(OC)c(CCNC(=O)c2cc3c(=O)n(C)c4ccccc4c3n2C)c1
[1]
  AC50: 15.8 µM [falling, partial curve]

## O=C(O)c1ccc(COc2ccc(Cl)cc2)o1
[1]
  AC50: 15.8 µM [falling, partial curve]

## Cc1cc(C(=O)Cn2nnc3ccccc3c2=O)c(C)n1Cc1cccs1
[1]
  AC50: 25.1 µM [falling, partial curve]

## O=C(NCC1CCN(Cc2ccc(F)cc2)CC1)c1cc2ccc3cccnc3c2[nH]1
[1]
  AC50: 15.8 µM [falling, partial curve]

## CCOc1ccc(NC(=O)Cn2c(=O)oc3cc(S(=O)(=O)N4CCC(C)CC4)ccc32)cc1
[1]
  AC50: 3.98 µM [falling, partial curve]

## COc1ccc(-c2csc(N3CCN(C(=O)c4ccco4)CC3)n2)cc1
[2]
  AC50: 25.1 µM [falling, single point]
[3]
  AC50: 10 µM [falling, partial curve]

## COc1ccc(CCn2c(=O)c3cccnc3n(CC(=O)Nc3cccc(C)c3)c2=O)cc1OC
[1]
  AC50: 15.8 µM [falling, single point]

## CCOC(=O)C1CCN(C(=O)Cn2nc(C)n3c(cc4cc(C)ccc43)c2=O)CC1
[1]
  AC50: 31.6 µM [falling, single point]

## COc1cc(-c2c(C#N)c(N)nc3c2CCCC3)ccc1O
[1]
  AC50: 15.8 nM [rising, full curve] [measured here: IkB-luc green channel]

## Cc1cc2nc(-c3ccc(Br)cc3)cc(C(F)(F)F)n2n1
[1]
  AC50: 0.01 µM [rising, full curve]

## CCc1nc2c(sc3nc4c(cc32)COC(C)(C)C4)c(=O)n1Cc1ccco1
[1]
  AC50: 10 µM [falling, partial curve]

## Cc1nc2c(C(=O)NCCc3ccc(Cl)cc3)c[nH]n2c(=O)c1Cc1ccccc1F
[1]
  AC50: 10 µM [falling, partial curve]

## COc1c(S(=O)(=O)N2CCCCC2)ccc2c(S(=O)(=O)N3CCCCC3)cccc12
[1]
  AC50: 3.98 µM [falling, partial curve]

## CCc1ccc(N2CCn3c2nc2c3c(=O)n(Cc3c(F)cccc3Cl)c(=O)n2C)cc1
[1]
  AC50: 20 µM [falling, partial curve]

## Cc1ccc2nc(NS(=O)(=O)c3ccc(Cl)cc3)c(Nc3ccc(C(=O)O)cc3)nc2c1
[1]
  AC50: 0.398 µM [falling, full curve]

## CCOc1ccc2[nH]c3c(N4CCN(c5ccccn5)CC4)ncnc3c2c1
[1]
  AC50: 10 µM [falling, partial curve]

## CCc1ccc(Sc2cc(C(=O)NCCCOC(C)C)c3ccccc3n2)cc1
[1]
  AC50: 15.8 µM [falling, partial curve]

## Cc1cc(C)cc(OCC(=O)Nc2ccc(Cl)c(-c3nc4ncccc4o3)c2)c1
[1]
  AC50: 7.94 µM [falling, full curve]

## CCOC(=O)c1oc2ccc(S(=O)(=O)n3nc(-c4cc(OC)cc(OC)c4)cc3N)cc2c1C
[1]
  AC50: 12.6 µM [falling, partial curve]

## CC(=O)Nc1ccc(-n2c(CCC(=O)O)ccc2-c2ccc(C)cc2)cc1
[1]
  AC50: 20 µM [falling, single point]

## CCCOC(=O)c1cc(=O)[nH]c2ccccc12
[1]
  AC50: 7.94 µM [rising, partial curve]

## Cc1ccc(NC(=O)CSc2nc3c(oc4ccccc43)c(=O)n2Cc2ccco2)cc1
[1]
  AC50: 25.1 µM [rising, partial curve, poor fit]

## CCCn1c(=O)c2sccc2n2c(CCCC(=O)N3CCN(c4cccc(C)c4C)CC3)nnc12
[1]
  AC50: 15.8 µM [falling, partial curve]

## CN(C(=O)CSc1nc2ccccc2n1CC(=O)N(C)c1ccc(F)cc1)c1ccccc1
[1]
  AC50: 12.6 µM [falling, partial curve]

## O=C(CCN1CCCCC1)c1ccc2c(c1)OCCO2
[1]
  AC50: 3.98 µM [falling, full curve, poor fit]

## COc1ccc(N2CCN(C(=O)C3CCN(S(=O)(=O)Cc4ccccc4)CC3)CC2)cc1
[1]
  AC50: 3.16 µM [falling, partial curve]

## O=C(CSc1nccn1Cc1ccc(F)cc1)Nc1ccc2c(c1)OCO2
[1]
  AC50: 1.26 µM [rising, full curve]

## Cc1ccc(CNC(=O)CN2C(=O)C3(SCC(=O)N3c3cc(C)cc(C)c3)c3ccccc32)cc1 (stereo not drawn)
[1]
  AC50: 10 µM [falling, partial curve]

## Cc1nnc(SCC(=O)Nc2nc3c(s2)CC(C)CC3)s1 (stereo not drawn)
[1]
  AC50: 6.31 µM [falling, full curve, poor fit]

## c1ccc(-n2c(SCc3nc(-c4cccs4)no3)nnc2-c2ccco2)cc1
[1]
  AC50: 25.1 µM [falling, partial curve]

## Cc1nc(-c2cccc(F)c2)sc1CCNC(=O)c1ccc(F)c(F)c1
[1]
  AC50: 25.1 µM [falling, partial curve]

## CCN1C(c2ccc(F)cc2)=CS/C1=C(\C#N)c1nnc2n1-c1ccccc1SC2
[1]
  AC50: 31.6 µM [falling, single point]

## Cn1c(=O)c2sccc2n2c(CCC(=O)N3CCN(c4cccc(Cl)c4)CC3)nnc12
[1]
  AC50: 15.8 µM [falling, single point]

## CCCCC(=O)Nc1nnc(S(=O)(=O)N(CC)c2cc(C)cc(C)c2)s1
[1]
  AC50: 12.6 µM [falling, partial curve]

## CCCCOC(=O)c1ccc(Nc2nc3ccccc3c3nnc(C)n23)cc1
[1]
  AC50: 2.51 µM [falling, partial curve]

## CCOc1ccc(/C=C(\C#N)C(=O)Nc2sc3c(c2C(=O)OC)C(C(=O)OC)CC3)cc1OC (stereo not drawn)
[2]
  AC50: 31.6 µM [rising, partial curve]
[3]
  AC50: 31.6 µM [rising, partial curve]

## Cc1ccsc1-c1nc(CSCC(=O)N2CCN(c3ccccc3)CC2)c(C)o1
[1]
  AC50: 12.6 µM [falling, partial curve]

## COc1ccc(-c2ccc(-c3nnc(-c4ccncc4)o3)cc2)cc1
[1]
  AC50: 20 µM [falling, single point]

## O=C(Cn1c(=O)n(Cc2ccc(C(=O)NCc3ccccc3Cl)cc2)c(=O)c2ccccc21)Nc1ccc(F)c(Cl)c1
[1]
  AC50: 1 µM [falling, full curve]

## CCc1cccc(C)c1NC(=O)CN1C(=O)C2(SCC(=O)N2c2cc(C)cc(C)c2)c2ccccc21 (stereo not drawn)
[1]
  AC50: 15.8 µM [falling, partial curve]

## Cc1ccc(-c2nc(CS(=O)(=O)CC(=O)NCc3ccccc3Cl)c(C)o2)cc1
[1]
  AC50: 31.6 µM [falling, partial curve]

## Cc1ccccc1CNC(=O)c1sc2ncnc(N(C)C3CCCCC3)c2c1C
[1]
  AC50: 39.8 µM [falling, single point]

## COc1ccccc1NC(=O)N(Cc1ccco1)Cc1cc2ccc(C)c(C)c2[nH]c1=O
[1]
  AC50: 15.8 µM [falling, partial curve]
